Results taken from US12466841B2, “Substituted pyrrolo[3,4-c]pyridines as HPK1 antagonists” (Nimbus Saturn, Inc., priority 2021, dated 2025).
Structures were worked out from names or drawings and are uncertain.

Amino acid sequences for entries named in this document (tags omitted).
UniProt Q92918, whole entry: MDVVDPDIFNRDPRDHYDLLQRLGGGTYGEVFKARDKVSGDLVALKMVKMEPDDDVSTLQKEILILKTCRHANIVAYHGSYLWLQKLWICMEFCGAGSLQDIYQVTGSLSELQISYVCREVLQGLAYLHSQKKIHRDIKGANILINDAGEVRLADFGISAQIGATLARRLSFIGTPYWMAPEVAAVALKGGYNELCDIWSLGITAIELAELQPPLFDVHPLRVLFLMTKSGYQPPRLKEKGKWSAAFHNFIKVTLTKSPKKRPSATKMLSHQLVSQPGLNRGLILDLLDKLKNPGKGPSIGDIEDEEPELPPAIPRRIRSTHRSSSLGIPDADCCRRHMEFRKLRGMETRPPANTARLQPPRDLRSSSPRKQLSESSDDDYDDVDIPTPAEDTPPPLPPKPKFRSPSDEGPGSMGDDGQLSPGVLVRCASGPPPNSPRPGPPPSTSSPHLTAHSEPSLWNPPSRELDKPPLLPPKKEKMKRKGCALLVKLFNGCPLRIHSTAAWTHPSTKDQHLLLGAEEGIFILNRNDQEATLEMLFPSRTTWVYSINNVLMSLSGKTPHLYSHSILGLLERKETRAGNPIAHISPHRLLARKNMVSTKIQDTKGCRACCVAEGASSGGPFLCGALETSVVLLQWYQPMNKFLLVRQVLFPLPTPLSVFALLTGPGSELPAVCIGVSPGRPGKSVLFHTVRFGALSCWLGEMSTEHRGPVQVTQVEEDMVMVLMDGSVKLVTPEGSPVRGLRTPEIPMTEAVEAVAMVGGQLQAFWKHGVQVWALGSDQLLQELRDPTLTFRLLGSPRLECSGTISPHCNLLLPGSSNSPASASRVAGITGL

Target: HPK1 (Homo sapiens (Human), UniProt Q92918)
Test: HPK1 biochemical enzyme assay (microfluidic mobility shift)
Details: read-out: HPK1 1000UMATP caliper IC50; 1.5 nM HPK1, ATP 1 mM final, 60 min at RT, Caliper EZ Reader
Experimental: HPK1 biochemical enzyme assay: HPK1 enzyme inhibition was measured using a microfluidic mobility shift assay. Reactions were performed in a 384-well plate, containing 1.5 nM HPK1 (Invitrogen), in assay buffer (Cana Biosciences; pH 7.4). Test compounds were titrated in ten point curves (top final assay concentration 3 μM), and preincubated with enzyme/substrate mix for 30 min prior to initiation of the reaction by addition of ATP (1 mM final concentration) and substrate (1 μM final concentration; Carna Biosciences) diluted in assay buffer supplemented by MgCl2 (final assay concentration of 5 mM). Following 60 min incubation at RT, the reaction was terminated by addition of 60 μl/well termination buffer (Carna Biosciences) and signal determination using a Caliper EZ Reader (Perkin Elmer, UK).
Compounds having an activity designated as “A” provided an IC50≤100 nM; compounds having an activity designated as “B” provided an IC50>100 nM.

- IC50: < 100 nM
SMILES: CC(C)(O)[C@@H]1CCCN(c2ccc(Nc3ncc(-c4cnc5cc(F)ccn45)c4c3C(=O)NC4)cc2)C1 (single isomer, unassigned) [Compound I-4]
